Laboratory results reported in the supplement of paper PMC10849652.
Some of the results follow.

By UniProt entry, the sequences of proteins in these tests, tags left out. Where a name states a change or a piece, a line headed by the entry shows the natural chain unless it says otherwise.
UniProt O60573: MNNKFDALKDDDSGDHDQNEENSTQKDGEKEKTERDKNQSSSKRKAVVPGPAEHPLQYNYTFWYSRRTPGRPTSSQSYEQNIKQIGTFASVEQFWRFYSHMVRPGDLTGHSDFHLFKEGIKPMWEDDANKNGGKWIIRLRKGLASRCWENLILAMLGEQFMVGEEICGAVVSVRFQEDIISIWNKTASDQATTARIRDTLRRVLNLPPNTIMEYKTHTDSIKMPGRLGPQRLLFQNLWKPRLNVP
UniProt Q96C92: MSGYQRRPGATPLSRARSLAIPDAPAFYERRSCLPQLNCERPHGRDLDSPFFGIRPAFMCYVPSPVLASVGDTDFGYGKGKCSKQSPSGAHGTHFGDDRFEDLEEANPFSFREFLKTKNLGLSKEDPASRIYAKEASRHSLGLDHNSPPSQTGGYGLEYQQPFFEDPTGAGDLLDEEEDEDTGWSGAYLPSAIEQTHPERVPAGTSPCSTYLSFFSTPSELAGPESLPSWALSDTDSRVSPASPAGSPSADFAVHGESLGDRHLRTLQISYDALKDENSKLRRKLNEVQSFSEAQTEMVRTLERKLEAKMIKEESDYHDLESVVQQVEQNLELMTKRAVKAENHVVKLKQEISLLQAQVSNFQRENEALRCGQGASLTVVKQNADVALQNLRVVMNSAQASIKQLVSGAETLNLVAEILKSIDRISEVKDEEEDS
UniProt Q96L91, whole entry, looked up: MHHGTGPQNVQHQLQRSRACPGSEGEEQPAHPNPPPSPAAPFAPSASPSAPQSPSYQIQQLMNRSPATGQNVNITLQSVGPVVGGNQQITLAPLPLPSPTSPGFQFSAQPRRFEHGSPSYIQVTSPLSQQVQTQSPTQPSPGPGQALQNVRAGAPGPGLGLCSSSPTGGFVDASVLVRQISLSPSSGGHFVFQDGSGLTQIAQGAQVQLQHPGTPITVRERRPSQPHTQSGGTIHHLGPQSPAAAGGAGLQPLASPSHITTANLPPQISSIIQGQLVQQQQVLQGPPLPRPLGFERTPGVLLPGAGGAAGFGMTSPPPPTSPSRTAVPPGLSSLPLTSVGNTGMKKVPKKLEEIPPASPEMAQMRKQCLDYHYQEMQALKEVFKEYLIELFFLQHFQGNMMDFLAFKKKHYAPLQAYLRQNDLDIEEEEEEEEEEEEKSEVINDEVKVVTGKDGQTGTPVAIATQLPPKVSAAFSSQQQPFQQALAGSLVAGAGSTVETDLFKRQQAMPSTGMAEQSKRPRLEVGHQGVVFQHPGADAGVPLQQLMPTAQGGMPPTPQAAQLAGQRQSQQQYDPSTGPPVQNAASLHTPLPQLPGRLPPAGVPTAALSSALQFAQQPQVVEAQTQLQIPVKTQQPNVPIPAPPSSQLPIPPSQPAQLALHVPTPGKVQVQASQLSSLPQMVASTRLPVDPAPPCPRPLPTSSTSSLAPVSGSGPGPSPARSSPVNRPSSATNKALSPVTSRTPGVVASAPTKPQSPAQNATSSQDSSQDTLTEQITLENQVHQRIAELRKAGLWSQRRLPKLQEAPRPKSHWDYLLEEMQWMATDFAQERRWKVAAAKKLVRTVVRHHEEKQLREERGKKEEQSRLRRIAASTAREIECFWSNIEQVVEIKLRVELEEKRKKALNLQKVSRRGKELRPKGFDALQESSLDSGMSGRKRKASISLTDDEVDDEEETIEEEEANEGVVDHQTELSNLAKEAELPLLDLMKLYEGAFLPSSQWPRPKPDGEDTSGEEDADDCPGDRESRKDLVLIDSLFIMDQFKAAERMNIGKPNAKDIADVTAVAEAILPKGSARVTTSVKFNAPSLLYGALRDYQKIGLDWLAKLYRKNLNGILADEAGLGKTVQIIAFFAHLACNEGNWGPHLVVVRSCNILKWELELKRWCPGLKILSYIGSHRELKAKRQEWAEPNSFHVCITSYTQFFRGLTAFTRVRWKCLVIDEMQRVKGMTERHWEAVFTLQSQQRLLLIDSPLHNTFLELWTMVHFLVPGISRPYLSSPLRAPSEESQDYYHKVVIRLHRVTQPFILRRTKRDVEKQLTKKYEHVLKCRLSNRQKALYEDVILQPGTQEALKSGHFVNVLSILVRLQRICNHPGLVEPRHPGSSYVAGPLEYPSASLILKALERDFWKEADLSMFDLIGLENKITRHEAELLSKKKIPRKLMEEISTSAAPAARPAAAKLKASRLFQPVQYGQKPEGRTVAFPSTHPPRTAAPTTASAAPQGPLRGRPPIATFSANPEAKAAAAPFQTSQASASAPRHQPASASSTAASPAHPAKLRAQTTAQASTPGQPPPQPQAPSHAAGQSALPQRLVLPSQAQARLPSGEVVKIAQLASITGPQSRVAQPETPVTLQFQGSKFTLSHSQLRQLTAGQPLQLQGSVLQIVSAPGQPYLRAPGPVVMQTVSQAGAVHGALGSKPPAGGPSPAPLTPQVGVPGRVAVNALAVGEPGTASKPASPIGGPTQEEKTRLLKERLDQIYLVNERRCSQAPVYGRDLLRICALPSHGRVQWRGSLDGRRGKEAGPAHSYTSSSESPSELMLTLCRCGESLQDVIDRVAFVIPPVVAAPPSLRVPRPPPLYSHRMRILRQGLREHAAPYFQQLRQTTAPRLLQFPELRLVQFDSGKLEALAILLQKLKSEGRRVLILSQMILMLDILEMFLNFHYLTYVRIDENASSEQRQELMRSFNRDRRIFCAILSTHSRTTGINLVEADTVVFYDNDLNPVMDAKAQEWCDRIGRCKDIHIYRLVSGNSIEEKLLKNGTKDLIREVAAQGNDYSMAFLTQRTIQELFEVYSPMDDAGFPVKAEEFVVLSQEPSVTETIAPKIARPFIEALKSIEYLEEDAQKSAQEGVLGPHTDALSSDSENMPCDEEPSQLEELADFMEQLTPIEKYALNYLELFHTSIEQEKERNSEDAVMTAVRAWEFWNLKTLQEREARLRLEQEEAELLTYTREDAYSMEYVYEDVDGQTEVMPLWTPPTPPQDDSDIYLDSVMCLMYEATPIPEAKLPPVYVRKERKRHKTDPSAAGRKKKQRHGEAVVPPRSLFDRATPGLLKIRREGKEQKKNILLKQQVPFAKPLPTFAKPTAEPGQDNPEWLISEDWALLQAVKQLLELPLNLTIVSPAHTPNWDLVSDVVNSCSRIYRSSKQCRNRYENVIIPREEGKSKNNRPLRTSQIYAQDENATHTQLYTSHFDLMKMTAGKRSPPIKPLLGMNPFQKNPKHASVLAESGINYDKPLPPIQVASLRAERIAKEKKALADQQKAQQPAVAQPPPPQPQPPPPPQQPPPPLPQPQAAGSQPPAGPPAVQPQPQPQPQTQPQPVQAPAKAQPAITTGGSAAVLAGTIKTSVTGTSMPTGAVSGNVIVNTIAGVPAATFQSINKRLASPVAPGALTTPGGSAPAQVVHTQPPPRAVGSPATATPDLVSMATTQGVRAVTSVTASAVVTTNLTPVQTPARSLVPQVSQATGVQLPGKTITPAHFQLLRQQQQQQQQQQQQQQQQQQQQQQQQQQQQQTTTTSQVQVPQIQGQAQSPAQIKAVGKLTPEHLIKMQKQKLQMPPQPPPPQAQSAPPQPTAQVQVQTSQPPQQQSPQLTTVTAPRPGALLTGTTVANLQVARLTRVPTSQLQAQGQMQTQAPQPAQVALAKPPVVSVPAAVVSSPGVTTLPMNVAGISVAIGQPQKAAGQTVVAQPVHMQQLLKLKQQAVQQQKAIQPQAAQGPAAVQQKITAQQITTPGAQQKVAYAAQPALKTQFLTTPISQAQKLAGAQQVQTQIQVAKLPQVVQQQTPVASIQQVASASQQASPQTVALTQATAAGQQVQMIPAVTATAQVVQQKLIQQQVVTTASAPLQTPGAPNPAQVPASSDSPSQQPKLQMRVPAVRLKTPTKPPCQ
UniProt Q9BQI3, whole entry, looked up: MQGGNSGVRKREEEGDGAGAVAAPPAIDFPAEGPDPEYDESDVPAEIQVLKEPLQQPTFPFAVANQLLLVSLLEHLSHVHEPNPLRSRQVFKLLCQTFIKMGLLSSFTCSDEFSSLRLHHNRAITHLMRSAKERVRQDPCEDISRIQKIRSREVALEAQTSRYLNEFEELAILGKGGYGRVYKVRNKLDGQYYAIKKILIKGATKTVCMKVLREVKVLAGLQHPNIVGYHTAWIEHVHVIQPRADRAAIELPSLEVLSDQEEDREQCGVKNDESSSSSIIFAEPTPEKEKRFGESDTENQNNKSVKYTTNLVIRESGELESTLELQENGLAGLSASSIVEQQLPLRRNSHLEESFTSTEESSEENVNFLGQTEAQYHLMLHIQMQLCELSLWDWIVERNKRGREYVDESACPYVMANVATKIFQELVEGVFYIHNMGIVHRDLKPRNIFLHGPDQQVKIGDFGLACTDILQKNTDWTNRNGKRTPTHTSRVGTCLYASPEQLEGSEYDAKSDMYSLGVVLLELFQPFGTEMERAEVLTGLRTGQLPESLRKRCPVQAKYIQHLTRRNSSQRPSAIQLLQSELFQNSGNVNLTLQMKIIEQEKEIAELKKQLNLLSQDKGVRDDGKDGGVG
UniProt Q8TE02: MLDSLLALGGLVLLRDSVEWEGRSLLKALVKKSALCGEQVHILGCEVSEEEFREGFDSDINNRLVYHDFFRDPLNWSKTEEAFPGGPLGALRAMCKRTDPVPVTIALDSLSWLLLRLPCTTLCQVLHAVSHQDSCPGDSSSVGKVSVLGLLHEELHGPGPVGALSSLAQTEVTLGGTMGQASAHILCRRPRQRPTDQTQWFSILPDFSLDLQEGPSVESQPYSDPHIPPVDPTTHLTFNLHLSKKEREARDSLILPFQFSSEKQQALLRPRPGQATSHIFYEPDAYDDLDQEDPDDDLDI
UniProt P11171, whole entry, looked up: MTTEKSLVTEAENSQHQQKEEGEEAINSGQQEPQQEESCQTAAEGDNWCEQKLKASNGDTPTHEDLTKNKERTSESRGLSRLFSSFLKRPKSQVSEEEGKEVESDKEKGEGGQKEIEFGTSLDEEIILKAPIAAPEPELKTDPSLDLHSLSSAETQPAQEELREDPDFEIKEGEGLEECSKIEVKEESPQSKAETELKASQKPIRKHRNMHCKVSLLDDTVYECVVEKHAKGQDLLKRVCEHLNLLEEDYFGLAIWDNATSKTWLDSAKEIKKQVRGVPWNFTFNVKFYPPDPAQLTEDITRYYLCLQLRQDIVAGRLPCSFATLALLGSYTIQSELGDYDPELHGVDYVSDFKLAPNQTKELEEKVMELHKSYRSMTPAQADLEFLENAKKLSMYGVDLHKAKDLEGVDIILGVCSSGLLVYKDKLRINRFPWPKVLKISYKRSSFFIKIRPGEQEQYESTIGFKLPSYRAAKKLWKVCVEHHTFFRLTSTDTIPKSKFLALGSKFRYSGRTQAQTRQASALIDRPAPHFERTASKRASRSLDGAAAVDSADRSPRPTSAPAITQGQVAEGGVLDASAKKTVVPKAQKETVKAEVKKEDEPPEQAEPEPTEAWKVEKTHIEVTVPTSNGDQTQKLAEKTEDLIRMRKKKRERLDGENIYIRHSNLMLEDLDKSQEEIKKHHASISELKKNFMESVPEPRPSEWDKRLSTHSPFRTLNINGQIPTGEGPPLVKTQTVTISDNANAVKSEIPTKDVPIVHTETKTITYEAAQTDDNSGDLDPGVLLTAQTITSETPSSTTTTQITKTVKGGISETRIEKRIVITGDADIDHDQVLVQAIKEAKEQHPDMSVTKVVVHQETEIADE
UniProt P0DPD8: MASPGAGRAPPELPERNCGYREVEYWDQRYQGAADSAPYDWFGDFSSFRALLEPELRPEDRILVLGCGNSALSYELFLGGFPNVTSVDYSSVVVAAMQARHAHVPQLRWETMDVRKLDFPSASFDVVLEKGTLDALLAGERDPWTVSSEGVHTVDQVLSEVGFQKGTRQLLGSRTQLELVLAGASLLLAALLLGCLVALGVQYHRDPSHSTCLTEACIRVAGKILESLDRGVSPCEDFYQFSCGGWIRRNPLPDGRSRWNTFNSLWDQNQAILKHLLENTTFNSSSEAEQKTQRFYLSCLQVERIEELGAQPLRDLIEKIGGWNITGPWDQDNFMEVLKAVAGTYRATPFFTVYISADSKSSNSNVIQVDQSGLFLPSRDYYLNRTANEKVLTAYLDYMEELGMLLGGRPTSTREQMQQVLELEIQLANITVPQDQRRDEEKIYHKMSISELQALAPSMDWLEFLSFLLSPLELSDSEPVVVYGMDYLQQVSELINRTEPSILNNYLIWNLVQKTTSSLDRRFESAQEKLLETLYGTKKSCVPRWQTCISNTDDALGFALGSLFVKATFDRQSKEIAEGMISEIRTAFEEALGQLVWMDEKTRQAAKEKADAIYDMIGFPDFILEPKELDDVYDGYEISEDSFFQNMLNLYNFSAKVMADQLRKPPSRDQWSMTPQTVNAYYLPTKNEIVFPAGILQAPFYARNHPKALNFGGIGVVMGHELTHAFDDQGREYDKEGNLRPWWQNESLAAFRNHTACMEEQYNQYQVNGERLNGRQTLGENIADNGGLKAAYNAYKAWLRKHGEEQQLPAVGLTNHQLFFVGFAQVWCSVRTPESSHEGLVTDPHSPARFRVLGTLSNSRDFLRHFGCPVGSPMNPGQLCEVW

How the values were obtained:
Experiment in all cases: log2 fold change, soluble protein after heating vs DMSO (PISA); higher = thermal stabilisation; K562 cells, 10 uM, 30 min; active = over 0.2 and 3.5 SD of the protein, either way, in both replicates (recomputed)
[1] = compound: CC[C@@H]1C(=O)N(C)c2cnc(Nc3ccc(C(=O)NC4CCN(C)CC4)cc3OC)nc2N1C1CCCC1
In short: (§1)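 K562 cells at 2×10^6 cells/mL were exposed to 10 μM compound for 30 min, then aliquots were heated for 3 min across 48°C-58°C, pooled, and extracted in PBS containing 0.5% NP-40 at 4°C. The supernatant after 21,000xg for 90 min was taken as soluble protein and measured by TMTpro 16plex LC-MS/MS with channel sums equalised. Thermal stability is reported relative to control samples, with values from duplicates. Fold changes are given on a log2 scale.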

[2] = compound: CCn1c(C(=O)N(C2CC2)C2CC2)cc2c3c(ncn3C)c(Nc3cc(C)n(C)n3)nc21
In short: as §1

[3] = compound: CCn1cc(-c2ccnc3[nH]c(-c4cccc(CN(C)C)c4)cc23)c(-c2ccc(NC(=O)N(C)C)cc2)n1
In short: as §1

[4] = compound: CN1CCC(CNc2ccc3ncc(-c4cccc(OC(F)(F)F)c4)n3n2)CC1
In short: as §1

volasertib = compound: CC[C@@H]1C(=O)N(C)c2cnc(Nc3ccc(C(=O)N[C@H]4CC[C@H](N5CCN(CC6CC6)CC5)CC4)cc3OC)nc2N1C(C)C [volasertib]
In short: as §1

[5] = compound: CC[C@H](C)N1C=C(C2=C(C=C(C=C21)C3=CN=C(C=C3)N4CCNCC4)C(=O)NCC5=C(C=C(NC5=O)C)C)C
In short: as §1

epoxomicin = compound: CC[C@H](C)[C@@H](C(=O)N[C@@H]([C@@H](C)O)C(=O)N[C@@H](CC(C)C)C(=O)[C@]1(CO1)C)NC(=O)[C@H]([C@@H](C)CC)N(C)C(=O)C [epoxomicin]
In short: as §1

[6] = compound: CN(C)CC(=O)Nc1ccc2[nH]c(=O)c3ccccc3c2c1
In short: as §1

[7] = compound: CN1C2=C(C3=C1C(=O)N(N=C3)CC4=CC(=CC=C4)N)SC(=C2)S(=O)C
In short: as §1

rosiglitazone = compound: CN(CCOC1=CC=C(C=C1)C[C@H]2C(=O)NC(=O)S2)C3=CC=CC=N3 (racemic) [rosiglitazone]
In short: as §1

Measured: log2 fold change

EFCAB2 (UniProt Q5VUJ9)
inactive: [1] -0.074 | [2] -0.173 | [3] 0.011 | [4] 0.037

EHBP1L1 (UniProt Q8N3D4)
inactive: [1] -0.035 | [5] 0.091 | epoxomicin 0.072 | [3] -0.055 | [6] 0.029 | [7] 0.077 | [4] 0.101
active: volasertib -0.307

EEF1A1 (UniProt P68104)
inactive: [1] -0.19 | volasertib 0.098 | [5] 0.131 | epoxomicin 0.148 | [6] 0.165 | [7] -0.121

EIF4A1 (UniProt P60842)
inactive: [1] -0.106 | [5] 0.079 | epoxomicin 0.001 | [3] -0.052 | [6] 0.047 | [7] -0.046 | [4] -0.126
active: volasertib -0.273

EIF2AK2 (UniProt P19525)
inactive: [1] 0.125 | epoxomicin -0.3 | [2] 0.071 | [3] -0.006 | [6] 0.114 | rosiglitazone -0.125 | [7] 0.242 | [4] 0.073

EFL1 (UniProt Q7Z2Z2)
inactive: [1] -0.024 | [5] 0.014 | epoxomicin 0.008 | [3] -0.006 | [6] 0.025 | [7] -0.037 | [4] -0.091
active: volasertib -0.245

EMD (UniProt P50402)
inactive: [1] -0.127 | [5] 0 | epoxomicin -0.065 | [3] 0 | [6] -0.018 | [7] 0.003 | [4] -0.078
active: volasertib -0.273

EIF4G3 isoform 3 (UniProt O43432)
inactive: [1] -0.074 | volasertib -0.165 | [5] 0.007 | [6] 0.039 | [7] 0.021

ELL (UniProt P55199)
inactive: [1] -0.155 | [5] 0.4 | epoxomicin -0.118 | [2] -0.029 | [3] -0.045 | rosiglitazone 0.429 | [7] 0.078 | [4] 0.04

EEF2K (UniProt O00418)
inactive: [1] -0.046 | volasertib -0.395 | epoxomicin 0.093 | [3] 0.028 | [6] 0.096 | [4] -0.188

ELF1 (UniProt P32519)
inactive: [1] 0.116 | volasertib -0.516 | [5] 0.185 | epoxomicin 0.117 | [7] 0.027

EIF4E2 (UniProt O60573)
active: volasertib -0.381
inactive: [1] -0.202 | [5] 0.124 | epoxomicin 0.018 | [6] 0.063 | [7] -0.034

EIF2B4 (UniProt Q9UI10)
inactive: [1] 0.119 | volasertib -0.347 | epoxomicin 0.06 | [2] 0.02 | [3] 0.056 | [6] -0.002 | rosiglitazone -0.165 | [7] -0.284 | [4] 0.043

EIF4ENIF1 isoform 3 (UniProt Q9NRA8)
inactive: [1] -0.042 | volasertib -0.108 | epoxomicin -0.053 | [2] -0.028 | [3] 0.018 | [6] -0.065 | rosiglitazone -0.044 | [7] -0.071 | [4] -0.275

EIF2AK3 (UniProt Q9NZJ5)
inactive: [1] 0.322 | volasertib -0.114 | [5] 0.357 | epoxomicin 0.033 | [3] 0.106 | [7] 0.14 | [4] -0.017

ELOC (UniProt Q15369)
inactive: [1] -0.009 | volasertib -0.016 | [5] 0.042 | epoxomicin 0.028 | [3] -0.087 | [6] 0.108 | [7] -0.033 | [4] -0.014

EMC9 (UniProt Q9Y3B6)
inactive: [5] 0.046

ELMO2 (UniProt Q96JJ3)
inactive: [7] 0.088

EIF3J isoform 2 (UniProt O75822)
inactive: volasertib 0.031 | [5] -0.079 | epoxomicin 0.025 | [6] 0.076 | [7] 0.133

EIF3I (UniProt Q5TFK1)
inactive: [7] 0.094

EP400P1 isoform 6 (UniProt Q6ZTU2)
inactive: [7] 0.044

EIF5A2 (UniProt Q9GZV4)
inactive: rosiglitazone -0.003 | [7] 0.125

ENAH (UniProt Q8N8S7)
inactive: [3] 0.02 | [6] -0.755 | [4] -0.136

EHMT1 (UniProt Q9H9B1)
inactive: volasertib -0.074 | epoxomicin -0.03 | [2] -0.077 | [3] 0.098 | [6] 0.072 | rosiglitazone 0.123 | [7] -0.049 | [4] -0.074

ENTR1 (UniProt Q96C92)
inactive: volasertib 0.167 | [6] -0.107 | [7] 0.183

EEF1AKMT1 (UniProt Q8WVE0)
inactive: epoxomicin -0.297

EML5 isoform 5 (UniProt Q05BV3)
inactive: volasertib -0.033 | [5] -0.179 | [2] 0.039 | [6] 0.108 | rosiglitazone 0.005 | [7] 0.017

EIF4G1 (UniProt Q04637)
inactive: [3] 0.062 | [6] 0 | [7] 0.224
active: [4] -0.552

EP400 (UniProt Q96L91)
inactive: [3] 0.061 | [4] 0.017

EIF2AK1 (UniProt Q9BQI3)
inactive: volasertib -0.142 | epoxomicin 0.13 | [3] 0.034 | [6] -0.121 | [7] 0.006 | [4] -0.082

ENO3 (UniProt K7EKN2)
inactive: [7] -0.341

ELP5 isoform 2 (UniProt Q8TE02)
inactive: volasertib 0.198 | [2] -0.012

EIF3E (UniProt E5RIT4)
inactive: epoxomicin 0.087

ENTPD3 (UniProt O75355)
inactive: volasertib 0.016

EHBP1 (UniProt Q8NDI1)
inactive: [1] -0.155 | [3] 0.011 | [4] 0.015

ENPP2 isoform 2 (UniProt Q13822)
inactive: epoxomicin -0.347 | rosiglitazone -0.069

EGR1 (UniProt P18146)
inactive: volasertib 0.085 | [5] 0.158 | epoxomicin 0.489 | [3] 0.228 | [6] -0.241 | [4] -0.56

ELMO1 (UniProt Q92556)
inactive: [5] -0.089 | epoxomicin -0.109 | [6] 0.031 | [7] -0.078

ELOVL7 (UniProt A1L3X0)
inactive: epoxomicin 0.007 | [7] 0.047

EID1 (UniProt Q9Y6B2)
inactive: volasertib 0.053 | [5] 0.172 | [3] -0.104 | [4] -0.317
active: epoxomicin 0.83

EPB41 isoform 4 (UniProt P11171)
inactive: volasertib -0.16 | [3] -0.099 | rosiglitazone -0.13 | [4] -0.062

EGFL7 (UniProt Q9UHF1)
inactive: epoxomicin 0.016 | [3] 0.042 | rosiglitazone 0.111 | [4] 0.353

ENO2 (UniProt U3KQQ1)
inactive: volasertib 0.124 | [3] -0.351 | rosiglitazone 0.057 | [4] -1.04

EIF3G (UniProt K7ER90)
inactive: [5] -0.112 | epoxomicin 0.028 | [2] -0.257 | [6] -0.014 | rosiglitazone 0.316 | [7] 0.146

EFR3A (UniProt Q14156)
inactive: [5] -0.242 | epoxomicin 0.158 | [6] 0.012

Four neighbouring entries already listed, for reference:
ELOVL7 (UniProt A1L3X0)
inactive: epoxomicin 0.007 | [7] 0.047

EID1 (UniProt Q9Y6B2)
inactive: volasertib 0.053 | [5] 0.172 | [3] -0.104 | [4] -0.317
active: epoxomicin 0.83

EPB41 isoform 4 (UniProt P11171)
inactive: volasertib -0.16 | [3] -0.099 | rosiglitazone -0.13 | [4] -0.062

EGFL7 (UniProt Q9UHF1)
inactive: epoxomicin 0.016 | [3] 0.042 | rosiglitazone 0.111 | [4] 0.353

Continuation.

EFEMP1 (UniProt Q12805)
inactive: volasertib -0.07 | [2] -0.044 | [3] 0.024 | [7] 0.243 | [4] -0.091

EIF4H isoform 2 (UniProt Q15056)
inactive: [2] 0.084 | [3] 0.257 | [4] -0.104

EFHD1 (UniProt Q9BUP0)
inactive: [5] -0.003 | epoxomicin 0.217 | [3] 0.094 | [6] -0.153 | [7] 0 | [4] -0.037

EEF1AKMT4-ECE2 (UniProt P0DPD8)
inactive: rosiglitazone 0.108 | [7] 0.517

ELK1 (UniProt P19419)
inactive: [3] -0.066 | [4] -0.053

EPB41, A0A2R8Y783
inactive: [5] -0.136 | [7] -0.004
